At least one peptide structure holds a part that was inferred or is arguable (an end, a ring closure or a residue). Where a SMILES comes first, the peptide text is derived from it. [ ]: non-standard residue; d: D form. pGlu = O=C1CC[C@@H](C(=O)O)N1
Key:
Format in all cases: in vivo
Myzus persicae = test: Leaf dip assay (IRAC susceptibility test method 019), mortality; conditions: unformulated peptide, mortality assessed at 72, 96 and 120 hours, compared to vehicle and Spirotetramat (FIGS. 6 and 7)
Aphis fabae [1] = test: PGRO field trial (Wigtoft location), vining peas; conditions: unformulated, UK field, counted 4 days following application (FIG. 10)
Aphis fabae [2] = test: Third PGRO field trial (slot trial, Holbeach location), vining peas; conditions: unformulated, counted 7 days following application, low aphid infestation (FIG. 11)
Aphis fabae [3] = test: Further PGRO field trials, naturally infested Aphis fabae; conditions: unformulated, 4 and 8 days after application (FIG. 14)
Aphis gossypii = test: AgriScience field trial (Greece), cotton crop; conditions: unformulated, counted 3 days following application (FIG. 12)

SMILES: CC[C@H](C)[C@H](NC(=O)[C@H](C)NC(=O)[C@@H]1CCC(=O)N1)C(=O)N[C@@H](CCSC)C(=O)N[C@@H](C)C(=O)N[C@@H](CCCNC(=N)N)C(=O)N1CCC[C@H]1C(=O)N[C@@H](CCC(N)=O)C(=O)N[C@H](C(=O)N1CCC[C@H]1C(=O)N[C@@H](CCCNC(=N)N)C(=O)N[C@@H](CC(C)C)C(N)=O)C(C)C [SB—P-47, [Pyr]-AIMARPQVPRL-[NH2]] ([pGlu]AIMARPQVPRL-NH2)
- activity against Myzus persicae (Myzus persicae): good activity
- activity on aphid management (reduction in Aphis fabae numbers) (Aphis fabae [1]): highly efficacious activity
- efficacy versus conventional pesticides (reduction in Aphis fabae numbers) (Aphis fabae [2]): performed as efficaciously as the conventional pesticides tested
- activity against Aphis fabae versus Hallmark Zeon insecticide (Aphis fabae [3]): acted comparably to Hallmark Zeon insecticide
- insecticidal efficacy on aphids on cotton (reduction in Aphis gossypii numbers) (Aphis gossypii): close efficacy to the conventional pesticide equivalent tested

— US12245588B1, “Insect neuropeptides 2” (Solasta Bio Limited, priority 2023, dated 2025)
